In US9655909B2, “Personalized medicine for the prediction of therapy targeting the hedgehog pathway” (Board of Regents, The University of Texas System, priority 2012, dated 2017):
At least one compound was matched to its structure with a doubt left.

What was measured:
[1] = test system: EAC cell lines and BE3 Gli1 stable clones; experiment: IC50 evaluation for cyclopamine and GDC-0449 (cell growth); format: cell-based, human; conditions: IC50 of cyclopamine or GDC-0449; Rapa 50 nM (FIG. 7F)
Procedure: FIGS. 7A-7G. […] FIG. 7A. The expression of activated SHH (SHH-N) in EAC cell lines and the cell culture medium. FIG. 7B. The mRNA levels of Gli1 target genes in EAC cell lines with or without SHH treatment (1 μg/mL). The mRNA levels of Gli1 target genes are normalized to ACTIN. Error bars represent SD (n=3). FIG. 7C. […] Error bars represent SD (n=4). FIG. 7D. […] Error bars represent SD (n=4). FIG. 7E. […] Error bars represent SD (n=4). FIG. 7F. […] Error bars represent SD (n=4). FIG. 7G. In vivo combination therapy for subcutaneously inoculated tumors from BE3 cells using GDC-0449 (50 mg/kg) or RAD001 (10 mg/kg). One million cells were subcutaneously injected into the right flank of nude mice and the tumor cells were allowed to grow for 10 days (the arrow) before initiation of drug treatment. The vehicle, GDC-0449, RAD001, or combination of GDC-0449 and RAD001 were orally administrated, qd. The tumor volume measured and calculated using the formula: l×w^2, where l is the longest diameter and w is the shortest diameter. Error bars represent SD (n=5).
The concentrations required to inhibit cell growth by 50% (IC50) were calculated from survival curves.

BE3 cells = experiment: MTT assay of BE3 cells with rapamycin; format: cell-based, human; conditions: 10 nM rapamycin
S6K1 and Gli1 = experiment: IP-Western assay of interaction between S6K1 variants and Gli1 in BE3 cells; format: cell-based, human; conditions: rapamycin 100 nM, 6 hours
Gli1 = Gli1 nuclear accumulation (cell fractionation Western blot, immunofluorescence) in BE3 cells; format: cell-based, human; conditions: TNFα 5 ng/mL, rapamycin 50 nM, cyclopamine 1 μM
Procedure: FIGS. 1A-1E. TNFα regulates Gli1 transcriptional activity. FIG. 1A. Luciferase assay for Gli transcriptional activity in esophageal adenocarcinoma (EAC) cell lines with or without TNFα (5 ng/mL) stimulation. The EAC cells were transfected using GliBS-Luciferase or mGliBS-Luciferase with CMV-Renilla at a 10:1 ratio, serum-starved overnight, and then treated with TNFα for 24 hr. GliBS is a Gli-responsive reporter, and mGliBS is a Gli-unresponsive reporter. Error bars represent SD (n=5). FIG. 1B. The mRNA levels of Gli1 target genes in the EAC cell lines with or without TNFα (5 ng/mL) stimulation were examined by real-time PCR and normalized to the mRNA level of ACTIN. Error bars represent SD (n=4). FIG. 1C. […] FIG. 1D. […] Then, the cells were lysed for cell fractionation followed by Western blotting. Lamin B and tubulin were used as markers for the nucleus and the cytoplasm, respectively. FIG. 1E. Immunofluorescent analysis of Gli1 in BE3 cells treated with TNFα (5 ng/mL) alone or co-treated with TNFα and rapamycin (50 nM) for the indicated time course. Scale bar=100 μm for original picture and 25 μm for inset. Dapi was used to stain nuclei.
Cellular fractionation was performed as described previously (Lin et al., 2001). Briefly, cells were lysed in the lysis buffer (20 mM HEPES, pH 7.0, 10 mM KCl, 2 mM MgCl2, 0.5% NP-40, 1 mM Na3VO4, 10 mM NaF, 1 mM PMSF, 2 μg/mL aprotinin). […]

Gli1 Ser84 = Gli1 Ser84 phosphorylation in BE3 cells (mass spectrometry, p-Gli1S84 antibody Western blot); format: cell-based, human
S6K1T389 and Gli1 Ser84 = experiment: Western blot of S6K1 and Gli1 phosphorylation in Hela cells with ectopic AKT or ERK; format: cell-based; conditions: rapamycin 50 nM
Gli reporter = Gli reporter luciferase assay in cells transfected with AKT or ERK; format: cell-based; conditions: rapamycin 50 nM, 24 hr
SuFu and Gli1 = experiment: Co-immunoprecipitation of SuFu and Gli1 in BE3 cells; format: cell-based, human; conditions: rapamycin 50 nM
S6K1 = experiment: Western blot of S6K1 activity/activation in BE3 cells; format: cell-based, human
[2] = test system: Gli-dependent luciferase reporter; experiment: Gli-dependent luciferase reporter assay in EAC cell lines; format: cell-based, human
Procedure: Because Gli protein activity is a useful readout for the HH pathway (Jiang and Hui, 2008), the inventors employed a Gli-dependent luciferase reporter system (Sasaki et al., 1997) to evaluate the influence of TNFα on the HH pathway in three EAC cell lines, BE3, SKGT-4, and OE33 (Boonstra et al., 2010). […] Then, the inventors compared the activity of HH pathway in EAC cells stimulated by SHH or TNFα.
Cells were seeded in six-well plates and transfected with GliBS or mGliBS combined with CMV-Renilla vector as an internal standard. After overnight (12-16 hr) transfection, the cells were used for further experiments. After treatment, the cells were rinsed with PBS and subjected to luciferase assay using a dual-luciferase reporter assay system (Promega) based on the manufacturer's instruction.

[3] = BE3 cells, rapamycin 100 nM, 24 hours

## CO[C@H]1C[C@@H]2CC[C@@H](C)[C@@](O)(O2)C(=O)C(=O)N2CCCC[C@H]2C(=O)O[C@H]([C@H](C)C[C@@H]2CC[C@@H](O)[C@H](OC)C2)CC(=O)[C@H](C)/C=C(\C)[C@@H](O)[C@@H](OC)C(=O)[C@H](C)C[C@H](C)/C=C/C=C/C=C/1C [rapamycin]
[1]
  effects of rapamycin on SMO inhibitors in BE3/Gli1 cells: existed
  effects of rapamycin on SMO inhibitors in BE3/S84E cells: but not in BE3/S84E cells
BE3 cells
  cell viability of BE3 cells: did not significantly inhibit cell viability
S6K1 and Gli1
  interaction between S6K1T389E and Gli1: but not
  interaction between S6K1 and Gli1: effectively inhibited
Gli1
  TNFα-induced Gli1 nuclear accumulation: blocked
Gli1 Ser84; BE3 cells, TNFα 5 ng/mL 6 hr after rapamycin pretreatment 2 hr
  phosphorylation of Gli1 Ser84 (mass spectrometric analysis): but not
Gli1 Ser84; BE3 cells, rapamycin 100 nM
  TNFα- or S6K1-induced Gli1 Ser84 phosphorylation (Western blot): diminished
Gli1 Ser84; BE3 stable clone, rapamycin 10, 50, 100 nM
  p-Gli1 S84 level under TNFα stimulation: gradually decreased
S6K1T389 and Gli1 Ser84
  AKT- or ERK-stimulated phosphorylation of S6K1T389 and Gli1 Ser84: inhibited
Gli reporter
  Gli1 activity increased by ectopic expression of AKT or ERK: could be blocked
SuFu and Gli1
  TNFα- or S6K1-decreased binding between SuFu and Gli1: fully reversed
S6K1; 10 nM rapamycin
  activation of S6K1 in BE3 cells: sufficient to inhibit the activation of S6K1
S6K1; BE3 cells transfected with constitutively activated S6K1T389E, rapamycin 100 nM, 6 hours
  activity of S6K1T389E (phosphorylation of S6): but not
S6K1; BE3 cells transfected with wild-type S6K1, rapamycin 100 nM, 6 hours
  activity of S6K1 (phosphorylation of S6): could inhibit
[2]; [3]
  effects of S6K1T389E on Gli reporter expression: did not affect
  effects of S6K1 on Gli reporter expression: blocked
[2]; TNFα 5 ng/mL plus rapamycin 100 nM
  TNFα-induced Gli1 transcriptional activity in BE3/Gli1: inhibited
[2]; TNFα 5 ng/mL, 24 hr, cyclopamine 0.5, 1, 5 μM, rapamycin 10, 50, 100 nM, WYE-354 10, 20, 40 nM
  TNFα-induced Gli activity: impaired
[2]; rapamycin 50 nM, rapamycin-resistant mTOR
  TNFα-stimulated Gli reporter expression in mTORS2035T-transfected EAC cells: barely had an effect
[2]; rapamycin 50 nM, wild-type mTOR
  TNFα-stimulated Gli reporter expression in mTOR-transfected EAC cells: suppressed
